Reference: patent EP3556767A1, “CELL PENETRATING PEPTIDES” (Universidade De Santiago De Compostela, priority 2018, dated 2019)
Where “and” joins values, the source holds several entries; their conditions need not be identical. Equal entries are not always repeated. Part of at least one peptide drawing is inferred or uncertain, most often the ends. Where a SMILES comes first, the peptide text is derived from it. The star is where a group is joined. 5TAMRA = CN(C)c1ccc2c(c1)Oc1cc(N(C)C)ccc1C21OC(=O)c2cc(C(=O)*)ccc21

Columns and labels:
[1] = Circular dichroism, percentage of helicity; format: physicochemical; conditions: 40°C; for % Helicity in Liposomes: egg yolk phosphatidylcholine liposomes
Protocol: Circular Dichroism (CD) measurements were performed with a Jasco J-1100 CD Spectrometer equipped with a Jasco MCB-100 Mini Circulation Bath for temperature control.
Circular dichroism measurements were carried out with the following settings: acquisition range: 300-190 nm; band width: 1.0 nm; accumulation: 3 scans; data pitch: 1 nm; CD scale 200 mdeg/1.0 dOD; D.I.T. (Data Integration Time): 1 s; scanning mode: continuous; scanning speed: 200 nm/min. Measurements were done from 10 °C to 60 °C (data interval: 10 °C; temp. gradient 5 °C/min) in a quartz cell of 0.2 cm path length at a final volume of 0.5 mL (H2O or TFE) with a final peptide concentration of 200 µM.
The results are expressed as the mean residue molar ellipticity [θ]MRt with units of degrees·cm^2.dmol^-1 and calculated using the equation S1.
The percentage of helicity was calculated using the equation S2. For the measurements in liposomes, samples were prepared by drying under reduced pressure L-α-phosphatidylcholine (16.7 µL, 25 mg/mL solution in CHCl3) and peptide (300 µL, 100 µM) in TFE to obtain a ratio lipid/peptide of 18:1 in a 10 mL round bottomed flask. The mixture was concentrated in a rotary evaporator to dryness, forming a film. The lipid/peptide mixture were suspended in HKR buffer (300 µL) to a final peptide concentration 100µM and sonicated for 45 min until a clear solution was obtained. Spectra were recorded in a 0.2 cm path length quartz cell. [formula]
Equation S1: Formula to calculate the ellipticity. θ is the ellipticity (mdeg), C is the peptide concentration (M) and I is the cell path length (cm). helicity % = (θMRt222nm−2340)/(30300) × 100 [formula]
Equation S2: Formula to calculate the percent of helicity in where the molar ellipticity at 222 nm is an absolute value.

[2] = system: HeLa cells; test: Quantification of the uptake by flow cytometry; format: cell-based; conditions: TAMRA labelled peptides, 1, 3, 5, 7, 10 µM; Figure 3
Protocol: For internalization standard assays we measured the amount of peptide fluorescence in cells by flow cytometry. Briefly, semiconfluent monolayers of HeLa cells seeded the day before were washed twice with HKR before incubation with different concentrations (1, 3, 5, 7, 10 µM) of TAMRA labelled peptides diluted in cell culture medium without serum for 1 hour at 37 °C . Then, cells were trypsinized with 100 µL of Trypsin-EDTA (Gibco) for 10 min at 37 °C, and trypsin neutralized with 100 µL of 2 % FBS in PBS with 5 mM EDTA. Pipetting broke cell clumps and the analysis was done in a Guava easyCyte™ cytometer. TAMRA levels were determined by excitation at 532 nm and detection at 575/25 nm. For the analysis, cells with typical FSC and SSC parameters were selected, and median fluorescence intensity was calculated for each sample. Data analysis was performed with InCyte software included in GuavaSoft 3.2 (Millipore).
The results of uptake of CPP P8 in HeLa, A-549 and SF9 are depicted in Figure 5: Uptake quantification by flow cytometry in three different cell lines: HeLa cells, A549 cells and Sf9 cells. Data points were collected in triplicate at six different concentrations (0, 1, 3, 5, 7, 10 µM). Cells were treated in DMEM (-) (HeLa, A549), or Sf-900-II (-) (Sf9) for 1 hour prior to trypsinization and cytometry quantification. Error bars indicate SD of three replicates.

| Compound | % Helicity in water [1] [%] | % Helicity in Liposomes [1] | uptake in living HeLa cells [2] |
| --- | --- | --- | --- |
| CC(C)C[C@H](NC(=O)c1ccc2c(c1)C(=O)OC21c2ccc(N(C)C)cc2Oc2cc(N(C)C)ccc21)C(=O)N[C@@H](CCCNC(=N)N)C(=O)N[C@@H](C)C(=O)N[C@@H](CC(C)C)C(=O)N[C@@H](CCCNC(=N)N)C(=O)N[C@@H](CCCNC(=N)N)C(=O)N[C@@H](CC(C)C)C(=O)N[C@@H](C)C(=O)N[C@@H](C)C(=O)N[C@@H](C)C(=O)N[C@@H](C)C(=O)N[C@@H](C)C(=O)N[C@@H](C)C(=O)N[C@@H](C)C(=O)N[C@@H](C)C(=O)N[C@@H](C)C(N)=O [P4, TmL R AL RR LA9] (5TAMRA-LRALRRLAAAAAAAAA-NH2) | 1.9 | 13% and 13.3% | – |
| CC(C)C[C@H](NC(=O)[C@H](C)NC(=O)[C@H](CCCNC(=N)N)NC(=O)[C@H](C)NC(=O)c1ccc2c(c1)C(=O)OC21c2ccc(N(C)C)cc2Oc2cc(N(C)C)ccc21)C(=O)N[C@@H](C)C(=O)N[C@@H](C)C(=O)N[C@@H](CC(C)C)C(=O)N[C@@H](C)C(=O)N[C@@H](CCCNC(=N)N)C(=O)N[C@@H](C)C(=O)N[C@@H](CC(C)C)C(=O)N[C@@H](C)C(=O)N[C@@H](C)C(=O)N[C@@H](C)C(=O)N[C@@H](C)C(=O)N[C@@H](CCCNC(=N)N)C(N)=O [P7, TmA R ALAALA R ALA4 R] (5TAMRA-ARALAALARALAAAAR-NH2) | 16.1 | 31.6% | perform better in the uptake test |
| CC(C)C[C@H](NC(=O)[C@H](C)NC(=O)[C@H](CCCNC(=N)N)NC(=O)[C@H](C)NC(=O)c1ccc2c(c1)C(=O)OC21c2ccc(N(C)C)cc2Oc2cc(N(C)C)ccc21)C(=O)N[C@@H](C)C(=O)N[C@@H](C)C(=O)N[C@@H](CC(C)C)C(=O)N[C@@H](C)C(=O)N[C@@H](CCCNC(=N)N)C(=O)N[C@@H](C)C(=O)N[C@@H](C)C(=O)N[C@@H](C)C(=O)N[C@@H](C)C(=O)N[C@@H](C)C(=O)N[C@@H](C)C(=O)N[C@@H](CCCNC(=N)N)C(N)=O [P2, TmA R ALAALA R A6 R] (5TAMRA-ARALAALARAAAAAAR-NH2) | 12.4 | 6.5% | – |
